According to publication PMC7819943, “Rice protein-binding microarrays: a tool to detect cis-acting elements near promoter regions in rice”:
The other results are listed elsewhere or left out.

Amino acid sequences for entries named in this document (tags omitted).
UniProt Q0JBA9, entry or part of it: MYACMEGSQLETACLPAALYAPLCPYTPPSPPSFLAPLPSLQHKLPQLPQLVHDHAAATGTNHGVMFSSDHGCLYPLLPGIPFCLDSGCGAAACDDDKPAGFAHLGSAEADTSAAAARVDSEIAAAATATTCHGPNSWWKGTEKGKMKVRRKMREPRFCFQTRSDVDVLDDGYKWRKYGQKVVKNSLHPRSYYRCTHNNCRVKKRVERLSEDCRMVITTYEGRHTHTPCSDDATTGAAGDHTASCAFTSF

biological target: OsWRKY34 (Oryza sativa, UniProt Q0JBA9 1-250); assay: protein-binding microarray (RPBM); PBS, 2% BSA, 51.3 ng/ul salmon testes DNA, 50 uM zinc acetate, 200 nM TF, 25 C, 1 h; high values mean tight binding; conditions: protein: recombinant; tags: N-terminal polyhistidine and DsRed monomer fusion (pET32a); label: CyDye5-dUTP incorporated in the synthesized complementary strand; 3' TTTTT single-stranded linker to array surface; dsDNA, one strand shown
In short: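 An Axon 4000B scanner gave the binding signal as per-feature fluorescence intensity in arbitrary units. This followed washing of a custom Agilent array that had been incubated for 1 h at 25 °C with 200 nM protein in PBS, 2% BSA, salmon testes DNA and 50 µM zinc acetate. The proteins were transcription factors fused at the N-terminus to polyhistidine and DsRed, expressed in E. coli BL21-CodonPlus and purified on Ni–NTA.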

Sequence | binding signal
ATTCTCTATATATTCAACTGTTGGGCCGTCCACTACATCTCGGAGTCACCTAGTGCAG | 8370 fluorescence intensity (a.u.)
TCCAGACACACATAGCCACTCCGTCACAATTTCGGCGTCGCGGAGTCACCTAGTGCAG | 11000 fluorescence intensity (a.u.)
TTTCTCAACTCGATCCATCTCTCTCTCTCTCTCGATCTCTCGGAGTCACCTAGTGCAG | 10500 fluorescence intensity (a.u.)
TGTAACTACAACCGCTGTGTTTTTTTCACATAATATCTTTCGGAGTCACCTAGTGCAG | 10900 fluorescence intensity (a.u.)
CGCTTCTGCCACGTCGCTCTCCCCGATGCGTTCTTATCCCCGGAGTCACCTAGTGCAG | 8060 fluorescence intensity (a.u.)
CCATCCCATCACTTGCTTCCCTTGCAAACGCAACCAACAACGGAGTCACCTAGTGCAG | 8600 fluorescence intensity (a.u.)
AATTACTATATGTATATTTACAGTTAAATTTGTTATTTTTCGGAGTCACCTAGTGCAG | 9040 fluorescence intensity (a.u.)
TGTGTGTATGATAAATGGGTCCCGCTTGTATTTTTTTTATCGGAGTCACCTAGTGCAG | 13500 fluorescence intensity (a.u.)
GCCTGTTCTTCAATTTGCCGCCGGCGCCGGCTTCGGCTTGCGGAGTCACCTAGTGCAG | 8110 fluorescence intensity (a.u.)
CCACTGCGCCACCGTCTCCTTCCCGCACCACGCGCGCGCCCGGAGTCACCTAGTGCAG | 8390 fluorescence intensity (a.u.)
GCAAATCTCAACATAGGCTAGCTTCTTAGTGCACTTGCTTCGGAGTCACCTAGTGCAG | 9760 fluorescence intensity (a.u.)
CACCCACCAAGTACTCTTTTTACTTTTACCACAGCGCATACGGAGTCACCTAGTGCAG | 9050 fluorescence intensity (a.u.)
GTTTCAATTATTTGACATCCAACCCCACTTTTATTCACTTCGGAGTCACCTAGTGCAG | 10400 fluorescence intensity (a.u.)
CGAAATGTTTGACGTCGTTGACTTTTTAGCACATGTTTAACGGAGTCACCTAGTGCAG | 22800 fluorescence intensity (a.u.)
TCCCAACACCTCTCCATCGTTTTCCGCGTGTACGCTTTTCCGGAGTCACCTAGTGCAG | 11500 fluorescence intensity (a.u.)
GCCGTTGACTTTTTATCCAACGTTTGATCATTCGTCTTATCGGAGTCACCTAGTGCAG | 40800 fluorescence intensity (a.u.)
CAAAATCCTTTTTCTTTTTTTCATTTTTTCTGTGCTTTTTCGGAGTCACCTAGTGCAG | 8680 fluorescence intensity (a.u.)
TCCGCGACGCCGTCTCCTGGAACTCGCTCATCGCCGCCTCCGGAGTCACCTAGTGCAG | 10000 fluorescence intensity (a.u.)
CTCCATGGCACTCACCTCACCACACACCACTCCACCATCACGGAGTCACCTAGTGCAG | 8450 fluorescence intensity (a.u.)
GTGGCGTCAAAGTATTGAGGGCGGGGATGCGGCCACCGTACGGAGTCACCTAGTGCAG | 8640 fluorescence intensity (a.u.)
ACTTCTTCATTTTAAACCCTCTTTTCGTTTAATTAACGTGCGGAGTCACCTAGTGCAG | 8880 fluorescence intensity (a.u.)

Sequence | binding signal
AGATCCAACGGCGGAGACCACCGCCGCCCCGTTCCGATCGCGGAGTCACCTAGTGCAG | 10100 fluorescence intensity (a.u.)
AGTCTAAAGTCTTTTCAACCTCCCTAGCTCGCTCGCATGCCGGAGTCACCTAGTGCAG | 9010 fluorescence intensity (a.u.)
AACCTCTCATTTAATAAGATTCATCACAGTCTTTTTTTTTCGGAGTCACCTAGTGCAG | 9990 fluorescence intensity (a.u.)
GCCCGCGCAGATCCGCGCGGTTCTTTTTTTGTGGGGAGAGCGGAGTCACCTAGTGCAG | 8850 fluorescence intensity (a.u.)
CCTCAAACTTATGCTTGCCCGTTTCTGTTGCAACAAAACCCGGAGTCACCTAGTGCAG | 11700 fluorescence intensity (a.u.)
TAACCTTTACCACACAATATCGTCCATGGACCAAATTATTCGGAGTCACCTAGTGCAG | 8260 fluorescence intensity (a.u.)
GGTTTTAATTTGTTTGTTACCGATGGCCGCTAAAAAGGAACGGAGTCACCTAGTGCAG | 11600 fluorescence intensity (a.u.)
AATTTACACTACATATATATTTTGCTGTATATACGTCGGTCGGAGTCACCTAGTGCAG | 8260 fluorescence intensity (a.u.)
CACTTGGCCAAAATGCTCCACCTTCACACTATGGCTTTACCGGAGTCACCTAGTGCAG | 8140 fluorescence intensity (a.u.)
TTGGGTGTTTATATGTTGTAATGTCTGTTCATTACTGTATCGGAGTCACCTAGTGCAG | 8880 fluorescence intensity (a.u.)
CTTGCTACTGTGTTTTGTTTTTCTTGGACCACCCAGTTATCGGAGTCACCTAGTGCAG | 14400 fluorescence intensity (a.u.)
CGTTCGTGCTGCCACCCGTCCGCCGCGCCGCTCCACGCCACGGAGTCACCTAGTGCAG | 9720 fluorescence intensity (a.u.)
CATCCCAAAACACCGAAGTTACCATTTCCCACCCGTTCGACGGAGTCACCTAGTGCAG | 8570 fluorescence intensity (a.u.)
GTTTCTCTGGGATTTGTCTGTCTGATGATCTCACTGGATTCGGAGTCACCTAGTGCAG | 9040 fluorescence intensity (a.u.)
TGGCATTTTTTTTTTCTTGTGAAAAACCGACGAGAGGAAGCGGAGTCACCTAGTGCAG | 8190 fluorescence intensity (a.u.)
TCCTCAGCCTCGACGCCGCCTTCCTCTCCTCCTGCGCCGGCGGAGTCACCTAGTGCAG | 10500 fluorescence intensity (a.u.)
CCTGCCGTTTTCTTTTTCTTTTTCTTTCCTTTTCCTTTTTCGGAGTCACCTAGTGCAG | 17000 fluorescence intensity (a.u.)
CGCCAACTCAACGCTGAAGCCGCTGCCTCACCATCTCGTCCGGAGTCACCTAGTGCAG | 8780 fluorescence intensity (a.u.)
ATCTCGCGTCTCTGGTCGACGGCTCTCTACCAGAATACCCCGGAGTCACCTAGTGCAG | 9480 fluorescence intensity (a.u.)
ACTCTTGCCATGTGTCATCGGTTTATAAGAAAAACCCTAACGGAGTCACCTAGTGCAG | 8770 fluorescence intensity (a.u.)
ACACCAAGTGACCATTCCATTCCATTCCATTCCTTCTCCCCGGAGTCACCTAGTGCAG | 8410 fluorescence intensity (a.u.)

Given as labelled records: part of the list above.
CATCCCAAAACACCGAAGTTACCATTTCCCACCCGTTCGACGGAGTCACCTAGTGCAG
  binding signal = 8570 fluorescence intensity (a.u.)
GTTTCTCTGGGATTTGTCTGTCTGATGATCTCACTGGATTCGGAGTCACCTAGTGCAG
  binding signal = 9040 fluorescence intensity (a.u.)
